In patent US20100311642A1, “USE OF V2 RECEPTOR ANTAGONISTS IN COMBINATION WITH VASO PRESSINERGIC AGNOSTS” (Ferring B.V., priority 2007, published 2010):
Part of at least one peptide drawing is inferred or uncertain, most often the ends. Positions of bridges follow the written chain, without caps; N, C: chain ends. Residues, ends and D or L forms follow the SMILES beside them.

The chains behind the UniProt entries cited, without tags or fusion partners.
UniProt P30518, whole entry: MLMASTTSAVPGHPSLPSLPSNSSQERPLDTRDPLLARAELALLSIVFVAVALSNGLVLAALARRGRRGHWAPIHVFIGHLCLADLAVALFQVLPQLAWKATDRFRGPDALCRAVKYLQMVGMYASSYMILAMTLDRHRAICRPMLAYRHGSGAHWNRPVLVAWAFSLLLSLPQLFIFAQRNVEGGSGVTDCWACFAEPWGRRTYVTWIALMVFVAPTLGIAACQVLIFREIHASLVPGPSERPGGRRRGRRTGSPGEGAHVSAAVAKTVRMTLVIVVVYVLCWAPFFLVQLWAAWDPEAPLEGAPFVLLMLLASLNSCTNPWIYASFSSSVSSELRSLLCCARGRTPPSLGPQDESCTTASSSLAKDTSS
UniProt P30560, whole entry: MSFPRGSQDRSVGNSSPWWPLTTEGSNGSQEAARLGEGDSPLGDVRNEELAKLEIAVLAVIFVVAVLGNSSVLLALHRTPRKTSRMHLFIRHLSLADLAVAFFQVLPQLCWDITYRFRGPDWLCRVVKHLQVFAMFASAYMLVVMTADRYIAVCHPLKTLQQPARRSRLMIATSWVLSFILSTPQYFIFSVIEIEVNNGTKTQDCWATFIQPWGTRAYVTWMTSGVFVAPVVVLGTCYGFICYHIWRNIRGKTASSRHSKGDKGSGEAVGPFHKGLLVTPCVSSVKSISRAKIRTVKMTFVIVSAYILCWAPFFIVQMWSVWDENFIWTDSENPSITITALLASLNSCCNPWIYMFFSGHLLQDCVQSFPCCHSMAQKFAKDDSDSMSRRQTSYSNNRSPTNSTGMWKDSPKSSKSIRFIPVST
UniProt Q00788, whole entry: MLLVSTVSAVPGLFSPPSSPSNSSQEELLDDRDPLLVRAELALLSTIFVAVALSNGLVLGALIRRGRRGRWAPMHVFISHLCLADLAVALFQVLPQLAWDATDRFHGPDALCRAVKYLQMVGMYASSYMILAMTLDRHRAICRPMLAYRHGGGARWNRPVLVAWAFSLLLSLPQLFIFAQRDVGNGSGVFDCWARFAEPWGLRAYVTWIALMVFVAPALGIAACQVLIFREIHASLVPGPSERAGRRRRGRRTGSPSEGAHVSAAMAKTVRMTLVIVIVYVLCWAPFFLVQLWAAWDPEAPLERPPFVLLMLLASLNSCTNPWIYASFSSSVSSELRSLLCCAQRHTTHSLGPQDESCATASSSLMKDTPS
UniProt P37288, whole entry: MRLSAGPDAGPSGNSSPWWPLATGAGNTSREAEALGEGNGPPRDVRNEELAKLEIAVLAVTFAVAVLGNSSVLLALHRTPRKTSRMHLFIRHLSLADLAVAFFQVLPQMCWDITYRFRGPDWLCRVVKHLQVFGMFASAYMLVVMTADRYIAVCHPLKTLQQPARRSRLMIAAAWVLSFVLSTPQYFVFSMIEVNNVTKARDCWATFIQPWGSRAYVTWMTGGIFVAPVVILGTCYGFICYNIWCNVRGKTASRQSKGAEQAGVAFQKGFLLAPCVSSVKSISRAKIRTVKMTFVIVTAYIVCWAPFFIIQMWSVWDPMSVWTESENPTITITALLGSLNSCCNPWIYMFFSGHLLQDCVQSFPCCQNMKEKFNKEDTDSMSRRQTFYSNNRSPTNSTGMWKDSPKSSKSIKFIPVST

Legend:
Assay type in all cases: cell-based
human V2 receptor (hV2R) = target: T1, human V2 receptor (hV2R) (Homo sapiens, UniProt P30518); assay: Agonist transcriptional reporter gene assay, human V2 receptor; conditions: hV2, HEK-293 reporter gene, 5 hours
T1 construct: expressed in transfected cells; host or cells: HEK-293

rat V1a receptor (rV1aR) = target: T2, rat V1a receptor (rV1aR) (Rattus norvegicus, UniProt P30560); assay: Agonist transcriptional reporter gene assay, rat V1a receptor; conditions: rV1a, HEK-293 reporter gene, 5 hours
T2 construct: expressed in transfected cells; host or cells: HEK-293

rat V2 receptor (rV2R) = target: T3, rat V2 receptor (rV2R) (Rattus norvegicus, UniProt Q00788); assay: Agonist transcriptional reporter gene assay, rat V2 receptor; conditions: rV2, HEK-293 reporter gene, 5 hours
T3 construct: expressed in transfected cells; host or cells: HEK-293

[1] = target: T4, human V1a receptor (hV1aR) (Homo sapiens, UniProt P37288); assay: Agonist transcriptional reporter gene assay, human V1a receptor; conditions: hV1a, HEK-293 reporter gene, 5 hours
T4 construct: expressed in transfected cells; host or cells: HEK-293

Compound | EC50 (human V2 receptor (hV2R)) [nM] | EC50 (rat V1a receptor (rV1aR)) [nM] | EC50 (rat V2 receptor (rV2R)) [nM] | EC50 [1] [nM]
NCCCC[C@H](NC(=O)[C@@H]1CCCN1C(=O)[C@@H]1CSSC[C@H](NC(=O)CNC(=O)CN)C(=O)N[C@@H](Cc2ccc(O)cc2)C(=O)N[C@@H](Cc2ccccc2)C(=O)N[C@@H](CCC(N)=O)C(=O)N[C@@H](CC(N)=O)C(=O)N1)C(=O)NCC(N)=O [H-Gly2-LVP, [Gly2]LVP] (H-GGCYFQNCPKG-NH2; disulfide 3-8 (inferred); C-terminus assumed) | 284 | 103 | 140 | 191
NCCCC[C@H](NC(=O)[C@@H]1CCCN1C(=O)[C@@H]1CSSC[C@H](NC(=O)CN)C(=O)N[C@@H](Cc2ccc(O)cc2)C(=O)N[C@@H](Cc2ccccc2)C(=O)N[C@@H](CCC(N)=O)C(=O)N[C@@H](CC(N)=O)C(=O)N1)C(=O)NCC(N)=O [H-Gly-LVP, [Gly1]-LVP] (H-GCYFQNCPKG-NH2; disulfide 2-7 (inferred); C-terminus assumed) | 20.3 | 29.8 | 20 | 89.4
